Test results published in PubChem BioAssay AID652163 (Broad Institute, 2013).
Among all 360,000 compounds or so, about 500 (0.14%) were called active. The inconclusive results got no clear call from the source; some entries with a clear call stand among them for comparison.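 How the source made its calls: active means mean inhibition of at least 70% across replicates, with every replicate also reaching that level; inconclusive means mean inhibition reaches 70% but some replicates fall short; inactive means mean inhibition below 70%.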

Chains of the proteins cited; added tags and fusions are not shown.
UniProt P26447, whole entry, looked up: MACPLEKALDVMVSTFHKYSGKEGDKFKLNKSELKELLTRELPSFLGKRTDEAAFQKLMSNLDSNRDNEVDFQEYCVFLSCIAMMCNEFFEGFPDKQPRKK

These compounds were tested against Protein S100-A4 (Homo sapiens) (UniProt P26447) (assay: inhibitors of S100A4-myosin IIA peptide binding, primary screen, biochemical, fluorescence polarization, TAMRA-MyoIIA peptide (AID 652163)). Conditions: at 10.7 µM, stronger effect = higher value.
In short: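 Material: human S100A4 monomer with TAMRA-labelled myosin IIA peptide; buffer or medium: HEPES pH 7.2 with CaCl2, KCl, NaCl, DTT, Triton; compound dosing: one concentration per compound; schedule: 5 min incubation before reading; benchmarks: neutral control DMSO, positive control TFP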
With CCC/C(O)=C1\C(=O)CCCC1=NCCc1c(C)[nH]c2ccc(OC)cc12 the inhibition was inactive: -1.11%.
In the case of C[C@@H]1CN([C@@H](C)CO)C(=O)c2cccc(NC(=O)C3CC3)c2O[C@@H]1CN(C)S(C)(=O)=O, the inhibition is reported as active: 124%.
Cc1occc1C(=O)N/N=C/C1=C(N2CCOCC2)C(=C\c2ccc(Cl)cc2Cl)/CC1 was tested, and the inhibition was inactive: -4.7%.
With CCCNC(=O)N[C@@H]1CC[C@H](CC(=O)NC2CCCCC2)O[C@@H]1CO the inhibition was inconclusive: 84.7%.
In the case of CC(C)NC(=O)N(C)C[C@@H]1Oc2c(NC(=O)Nc3cccc4ccccc34)cccc2C(=O)N([C@H](C)CO)C[C@H]1C, the inhibition is reported as active: 101%.
O=C(Nc1cc(=O)[nH]c2nc(-c3ccccc3)nn12)c1ccc(Cl)cc1 was tested, and the inhibition was inconclusive: 99.2%.
In the case of NC(=O)C1CCN(c2nc(-c3ccccc3Br)cs2)CC1, the inhibition is reported as inactive: 11.6%.
Cc1ccc(S(=O)(=O)Nc2ccc3c(c2)C(=O)N([C@@H](C)CO)C[C@H](C)[C@@H](CN(C)Cc2ccccc2)O3)cc1 was tested, and the inhibition was inconclusive: 81.1%.
For Cc1ccc(S(=O)(=O)Nc2ccc3c(c2)C(=O)N([C@H](C)CO)C[C@@H](C)[C@@H](CN(C)S(=O)(=O)c2ccc(C)cc2)OCCCC[C@@H](C)O3)cc1, the inhibition was active: 103%.
With CO[C@H]1CN(C)C(=O)c2ccc(NC(=O)NC(C)C)cc2OC[C@H](C)N(C(=O)C2CCC2)C[C@@H]1C the inhibition was inconclusive: 86.2%.
For COc1ccc2c3c(n(C)c2c1)[C@@H](CO)N(C(=O)c1ccccc1)CC31CN(C(=O)c2ccccc2)C1, the inhibition was inactive: 10.2%.
With Cc1noc(C)c1NC(=O)N(C)C[C@H]1Oc2ccc(NC(=O)C3CC3)cc2C(=O)N([C@@H](C)CO)C[C@@H]1C the inhibition was inconclusive: 84.5%.
In the case of CCCc1cn(CC[C@H]2CC[C@@H](NC(=O)C3CCOCC3)[C@@H](CO)O2)nn1, the inhibition is reported as inconclusive: 73%.
CN(C)c1ccc2nc3c(=O)[nH]c(=O)nc-3n(CC(O)C(O)C(O)CO)c2c1 (stereo unspecified) was tested, and the inhibition was inconclusive: 92.7%.
For C[C@H]1CN([C@@H](C)CO)C(=O)c2cc(-c3cccc(C#N)c3)cnc2O[C@@H]1CN(C)Cc1cccnc1, the inhibition was active: 128%.
For CCOC(=O)C1=CN(Cc2cccc(I)c2)S(=O)(=O)N(C)C1C (stereo unspecified), the inhibition was inactive: -2.09%.
In the case of CC1(C(=O)NCc2cccnc2)Cc2c(-c3cccc(C(F)(F)F)c3)ccnc2O1 (stereo unspecified), the inhibition is reported as inconclusive: 91.9%.
COc1ccc(CCNC(=O)c2cc(-c3ccco3)nc3ccccc23)cc1 was tested, and the inhibition was inconclusive: 75.4%.
In the case of CS(=O)(=O)N1[C@H](C(=O)NC2CCC2)[C@@H](CO)[C@@H]2Cn3c(ccc(-c4ccccc4)c3=O)[C@@H]21, the inhibition is reported as inconclusive: 103%.
With CCN(CC)S(=O)(=O)c1ccc(/C=C/C(=O)Nc2cccc(F)c2)cc1 the inhibition was inactive: 0.063%.
With COC(=O)C[C@@H]1C[C@@H]2c3cc(NS(=O)(=O)c4ccccc4)ccc3O[C@@H]2[C@@H](CO)O1 the inhibition was inconclusive: 77.3%.
For O=C(Cc1ccc(F)cc1)OCn1nnc2ccccc2c1=O, the inhibition was inconclusive: 84.4%.
In the case of Cc1ccc(NC(=O)CN(C)C(=O)Cn2ncc(Cl)c(Cl)c2=O)cc1, the inhibition is reported as inactive: -13.2%.
Cc1ccc(S(=O)(=O)NCC[C@@H]2CC[C@@H](NC(=O)C3CCOCC3)[C@H](CO)O2)cc1 was tested, and the inhibition was active: 98.6%.
For CCNC(=O)C[C@@H]1CC[C@H]2[C@H](COc3ccc(NC(=O)Nc4cccc(F)c4)cc3C(=O)N2C)O1, the inhibition was inconclusive: 116%.
COc1ccc(/C=N/n2nnnc2N)c(OC)c1 was tested, and the inhibition was inconclusive: 96.4%.
With CN(C)C(=O)C[C@H]1C=C[C@H](NC(=O)C2CC2)[C@@H](CO)O1 the inhibition was inactive: -10.5%.
With COc1cccc(NC(=O)C[C@@H]2CC[C@@H]3[C@H](COc4ccc(NC(=O)c5ccccc5F)cc4C(=O)N3C)O2)c1 the inhibition was inactive: -3.16%.
For COc1ccc(CN2CCN(C(=O)Cn3ncn4cccc4c3=O)CC2)c(OC)c1OC, the inhibition was inconclusive: 75%.
CC(=O)OC(C)=O was tested, and the inhibition was active: 78.9%.
In the case of Cc1noc(C)c1S(=O)(=O)Nc1ccc2c(c1)C(=O)N([C@H](C)CO)C[C@H](C)[C@@H](CN(C)C(=O)Nc1ccccc1)OCCCC[C@H](C)O2, the inhibition is reported as inconclusive: 92.9%.
For C[C@@H]1CCCCO[C@@H](CN(C)Cc2ccc(C(=O)O)cc2)[C@H](C)CN([C@H](C)CO)C(=O)c2cc(NC(=O)CCCN(C)C)ccc2O1, the inhibition was active: 130%.
With O=C(Nc1ccc(Cl)cc1)N[C@@H]1CC[C@@H](CCNC(=O)c2cc(Cl)cc(Cl)c2)O[C@H]1CO the inhibition was inconclusive: 75%.
COc1ccccc1C(=O)N/C(=C\c1ccc(Br)cc1)C(=O)NCC(=O)O was tested, and the inhibition was inactive: -4.09%.
In the case of CCc1c(C)nc(SCC(=O)N2CCN(c3ccccc3OC)CC2)[nH]c1=O, the inhibition is reported as inactive: -0.999%.
In the case of COc1ccc(Cc2nc3ccc(C(=O)NCC4COCCO4)cc3o2)cc1 (stereo unspecified), the inhibition is reported as inconclusive: 123%.
In the case of CO[C@H]1CN(C)C(=O)c2ccc(NS(=O)(=O)c3cn(C)cn3)cc2OC[C@H](C)NC[C@@H]1C, the inhibition is reported as inconclusive: 98.9%.
COc1ccc(NC(=O)N2CCc3ccccc3C2)cc1 was tested, and the inhibition was inconclusive: 87.1%.
With COc1ccc(S(=O)(=O)N(C)C[C@@H]2OCCCC[C@H](C)Oc3ccc(NS(=O)(=O)c4cn(C)cn4)cc3C(=O)N([C@H](C)CO)C[C@@H]2C)cc1 the inhibition was inconclusive: 70.8%.
For C[C@@H]1CN([C@H](C)CO)S(=O)(=O)c2ccc(-c3cccc(C(=O)N(C)C)c3)cc2O[C@H]1CN(C)Cc1ccc2c(c1)OCO2, the inhibition was inconclusive: 71.5%.
In the case of C[C@H]1CN([C@@H](C)CO)C(=O)c2cccc(NC(=O)NC3CCCCC3)c2O[C@@H]1CN(C)C(=O)Nc1cccc2ccccc12, the inhibition is reported as inconclusive: 71.6%.
O=C(C[C@H]1C=C[C@@H](NC(=O)C2CCOCC2)[C@@H](CO)O1)NCc1ccncc1 was tested, and the inhibition was inactive: 20.8%.
In the case of CC(C)(C)[C@@H]1C=C(C(=O)Nc2ccccc2)O[C@H](OCc2ccc(CO)cc2)C1, the inhibition is reported as active: 98%.
With Nc1nnc(SCC(=O)Nc2cccc(Cl)c2)s1 the inhibition was inactive: -3.55%.
For CCCNC(=O)N1[C@H](CO)[C@@H]2c3ccccc3N(C(=O)c3ccc(F)cc3)C[C@@H]21, the inhibition was active: 124%.
C[C@H]1CN([C@@H](C)CO)C(=O)CCCn2cc(nn2)CO[C@@H]1CN(C)S(=O)(=O)c1ccc2ccccc2c1 was tested, and the inhibition was inconclusive: 94.5%.
For COCC(=O)N1[C@@H]2Cn3c(ccc(/C=C/c4ccccc4)c3=O)[C@H]1[C@@H](C(=O)N1CCCCC1)[C@@H]2CO, the inhibition was inconclusive: 73.3%.
In the case of COc1ccc2c3c([nH]c2c1)[C@@H](CO)N(C(=O)C1CCC1)CC31CN(C(=O)c2ccccn2)C1, the inhibition is reported as inactive: 0.455%.
For CCN(CC(=O)Nc1c(F)cccc1F)C(=O)CCSc1ccc(C)cc1, the inhibition was inconclusive: 74.8%.
In the case of c1ccc(-c2cn(-c3ccccc3)c3[n+]2CCS3)cc1, the inhibition is reported as inactive: 4.64%.
In the case of O=C(C[C@@H]1CC[C@@H]2[C@H](COC[C@H](O)CN2S(=O)(=O)c2ccccc2Cl)O1)N1CCC(Cc2ccccc2)CC1, the inhibition is reported as inconclusive: 79.9%.
For CCOc1nc(C)cc(COC)c1C(N)=O, the inhibition was inconclusive: 72.7%.
C[C@H]1CN([C@@H](C)CO)C(=O)Cc2cc(NS(=O)(=O)c3ccc(Cl)cc3)ccc2O[C@H]1CN(C)S(=O)(=O)c1ccc(F)cc1 was tested, and the inhibition was inactive: 8.11%.
For CCOC(=O)C1(CCOc2ccccc2)CCN(Cc2ccc(C)o2)CC1, the inhibition was inactive: -1.45%.
For C[C@H]1CN([C@@H](C)CO)C(=O)Cc2cc(NC(=O)c3ccncc3)ccc2O[C@H]1CN(C)C(=O)Nc1ccc(C(F)(F)F)cc1, the inhibition was inconclusive: 94.4%.
For Cc1ccc(S(=O)(=O)N(C)C[C@@H]2OCCCC[C@@H](C)Oc3ccc(NS(C)(=O)=O)cc3C(=O)N([C@@H](C)CO)C[C@@H]2C)cc1, the inhibition was active: 88.3%.
For C[C@H](CO)N1C[C@H](C)[C@@H](CN(C)Cc2cccc(F)c2)Oc2ncc(C#C[C@@H](C)O)cc2C1=O, the inhibition was active: 141%.
With O=C(C1CC1)N1CCC(c2nc(-c3ccc(S(=O)(=O)NCC4CCCO4)cc3)no2)CC1 (stereo unspecified) the inhibition was inactive: 1.09%.
For Cc1ccc(NC(=O)Cn2cccc2C2=NC(c3ccccc3)CO2)cc1C (stereo unspecified), the inhibition was inactive: 26.9%.
For C[C@@H]1CN([C@H](C)CO)C(=O)Cc2cc(NC(=O)Nc3ccc(F)cc3)ccc2O[C@H]1CN(C)Cc1ccc2c(c1)OCO2, the inhibition was inconclusive: 81.1%.
For CN1c2ccc(C#Cc3cccnc3)cc2[C@@H]2[C@@H](CCN2S(=O)(=O)c2ccccc2F)[C@@H]1CO, the inhibition was active: 120%.
With COc1ccc(NC(=O)N[C@H]2CC[C@H](CCNS(=O)(=O)c3cccc(Cl)c3)O[C@H]2CO)cc1 the inhibition was inconclusive: 80.8%.
In the case of COCC(=O)N1C[C@H]2[C@@H](c3ccccc31)[C@@H](CO)N2C(=O)Nc1ccccc1F, the inhibition is reported as active: 102%.
With CC(=O)N1[C@H](C(=O)NCCCN(C)C)[C@@H](CO)[C@@H]2Cn3c(ccc(-c4cccc(F)c4)c3=O)[C@@H]21 the inhibition was active: 101%.
COc1cc(/C=C/C(=O)NC(C)C2CC3CCC2C3)cc(OC)c1OC (stereo unspecified) was tested, and the inhibition was inconclusive: 93.8%.
For O=C(C[C@H]1CC[C@H]2[C@@H](COC[C@H](O)CN2S(=O)(=O)c2ccc(Cl)cc2)O1)N[C@@H]1CCN(Cc2ccccc2)C1, the inhibition was inactive: -31.1%.
For C/C(N)=C(/C#N)C(=O)COC(=O)CNS(=O)(=O)c1c(F)cccc1F, the inhibition was inactive: -2.27%.
With CO[C@H](CN(C)S(=O)(=O)c1ccc(F)cc1)[C@H](C)CN(C(=O)Nc1ccccc1F)[C@H](C)CO the inhibition was inconclusive: 71.2%.
For CCC(=O)N1C[C@@H]2[C@H](c3ccccc31)[C@@H](CO)N2C(=O)CC, the inhibition was active: 73.3%.
For Cc1cccc(S(=O)(=O)N2C[C@@H]3N[C@H](C2)C3c2ccc(-c3cccnc3)cc2)c1 (stereo partly specified), the inhibition was inconclusive: 75.8%.
O=C1C(c2ccccc2)CN1Cc1ccccc1 (stereo unspecified) was tested, and the inhibition was inactive: 2.66%.
In the case of O=C(Nc1ccc(Cl)cc1)N[C@@H]1CC[C@H](CCNC(=O)c2ccccc2F)O[C@@H]1CO, the inhibition is reported as inconclusive: 71.7%.
With O=C(OCc1c(-c2ccccc2)ncc2ccccc12)N1CCOCC1 the inhibition was inconclusive: 77.8%.
With Cc1ccc(S(=O)(=O)N(C)C[C@@H]2Oc3ccc(NC(=O)Nc4cccc5ccccc45)cc3CC(=O)N([C@H](C)CO)C[C@@H]2C)cc1 the inhibition was inconclusive: 97.8%.
With O=C(Cc1ccncc1)NCC[C@@H]1CC[C@@H](NC(=O)C2CCOCC2)[C@@H](CO)O1 the inhibition was active: 102%.
In the case of C[C@@H]1CCCCO[C@H](CN(C)C(=O)NC2CCCCC2)[C@@H](C)CN([C@@H](C)CO)C(=O)c2cc(NC(=O)Nc3ccc(C(F)(F)F)cc3)ccc2O1, the inhibition is reported as active: 143%.
